The target of the assay is BRCA2 (human (endogenous; cell line not named, all cell lines of the paper are human)) (UniProt P51587). The assay is described as follows: co-IP; EMSY and BRCA2 at endogenous levels; no figure cited; cells and antibodies not stated.

Protein sequences, listed by entry. Tags and fused reporters are not part of them.
UniProt P51587: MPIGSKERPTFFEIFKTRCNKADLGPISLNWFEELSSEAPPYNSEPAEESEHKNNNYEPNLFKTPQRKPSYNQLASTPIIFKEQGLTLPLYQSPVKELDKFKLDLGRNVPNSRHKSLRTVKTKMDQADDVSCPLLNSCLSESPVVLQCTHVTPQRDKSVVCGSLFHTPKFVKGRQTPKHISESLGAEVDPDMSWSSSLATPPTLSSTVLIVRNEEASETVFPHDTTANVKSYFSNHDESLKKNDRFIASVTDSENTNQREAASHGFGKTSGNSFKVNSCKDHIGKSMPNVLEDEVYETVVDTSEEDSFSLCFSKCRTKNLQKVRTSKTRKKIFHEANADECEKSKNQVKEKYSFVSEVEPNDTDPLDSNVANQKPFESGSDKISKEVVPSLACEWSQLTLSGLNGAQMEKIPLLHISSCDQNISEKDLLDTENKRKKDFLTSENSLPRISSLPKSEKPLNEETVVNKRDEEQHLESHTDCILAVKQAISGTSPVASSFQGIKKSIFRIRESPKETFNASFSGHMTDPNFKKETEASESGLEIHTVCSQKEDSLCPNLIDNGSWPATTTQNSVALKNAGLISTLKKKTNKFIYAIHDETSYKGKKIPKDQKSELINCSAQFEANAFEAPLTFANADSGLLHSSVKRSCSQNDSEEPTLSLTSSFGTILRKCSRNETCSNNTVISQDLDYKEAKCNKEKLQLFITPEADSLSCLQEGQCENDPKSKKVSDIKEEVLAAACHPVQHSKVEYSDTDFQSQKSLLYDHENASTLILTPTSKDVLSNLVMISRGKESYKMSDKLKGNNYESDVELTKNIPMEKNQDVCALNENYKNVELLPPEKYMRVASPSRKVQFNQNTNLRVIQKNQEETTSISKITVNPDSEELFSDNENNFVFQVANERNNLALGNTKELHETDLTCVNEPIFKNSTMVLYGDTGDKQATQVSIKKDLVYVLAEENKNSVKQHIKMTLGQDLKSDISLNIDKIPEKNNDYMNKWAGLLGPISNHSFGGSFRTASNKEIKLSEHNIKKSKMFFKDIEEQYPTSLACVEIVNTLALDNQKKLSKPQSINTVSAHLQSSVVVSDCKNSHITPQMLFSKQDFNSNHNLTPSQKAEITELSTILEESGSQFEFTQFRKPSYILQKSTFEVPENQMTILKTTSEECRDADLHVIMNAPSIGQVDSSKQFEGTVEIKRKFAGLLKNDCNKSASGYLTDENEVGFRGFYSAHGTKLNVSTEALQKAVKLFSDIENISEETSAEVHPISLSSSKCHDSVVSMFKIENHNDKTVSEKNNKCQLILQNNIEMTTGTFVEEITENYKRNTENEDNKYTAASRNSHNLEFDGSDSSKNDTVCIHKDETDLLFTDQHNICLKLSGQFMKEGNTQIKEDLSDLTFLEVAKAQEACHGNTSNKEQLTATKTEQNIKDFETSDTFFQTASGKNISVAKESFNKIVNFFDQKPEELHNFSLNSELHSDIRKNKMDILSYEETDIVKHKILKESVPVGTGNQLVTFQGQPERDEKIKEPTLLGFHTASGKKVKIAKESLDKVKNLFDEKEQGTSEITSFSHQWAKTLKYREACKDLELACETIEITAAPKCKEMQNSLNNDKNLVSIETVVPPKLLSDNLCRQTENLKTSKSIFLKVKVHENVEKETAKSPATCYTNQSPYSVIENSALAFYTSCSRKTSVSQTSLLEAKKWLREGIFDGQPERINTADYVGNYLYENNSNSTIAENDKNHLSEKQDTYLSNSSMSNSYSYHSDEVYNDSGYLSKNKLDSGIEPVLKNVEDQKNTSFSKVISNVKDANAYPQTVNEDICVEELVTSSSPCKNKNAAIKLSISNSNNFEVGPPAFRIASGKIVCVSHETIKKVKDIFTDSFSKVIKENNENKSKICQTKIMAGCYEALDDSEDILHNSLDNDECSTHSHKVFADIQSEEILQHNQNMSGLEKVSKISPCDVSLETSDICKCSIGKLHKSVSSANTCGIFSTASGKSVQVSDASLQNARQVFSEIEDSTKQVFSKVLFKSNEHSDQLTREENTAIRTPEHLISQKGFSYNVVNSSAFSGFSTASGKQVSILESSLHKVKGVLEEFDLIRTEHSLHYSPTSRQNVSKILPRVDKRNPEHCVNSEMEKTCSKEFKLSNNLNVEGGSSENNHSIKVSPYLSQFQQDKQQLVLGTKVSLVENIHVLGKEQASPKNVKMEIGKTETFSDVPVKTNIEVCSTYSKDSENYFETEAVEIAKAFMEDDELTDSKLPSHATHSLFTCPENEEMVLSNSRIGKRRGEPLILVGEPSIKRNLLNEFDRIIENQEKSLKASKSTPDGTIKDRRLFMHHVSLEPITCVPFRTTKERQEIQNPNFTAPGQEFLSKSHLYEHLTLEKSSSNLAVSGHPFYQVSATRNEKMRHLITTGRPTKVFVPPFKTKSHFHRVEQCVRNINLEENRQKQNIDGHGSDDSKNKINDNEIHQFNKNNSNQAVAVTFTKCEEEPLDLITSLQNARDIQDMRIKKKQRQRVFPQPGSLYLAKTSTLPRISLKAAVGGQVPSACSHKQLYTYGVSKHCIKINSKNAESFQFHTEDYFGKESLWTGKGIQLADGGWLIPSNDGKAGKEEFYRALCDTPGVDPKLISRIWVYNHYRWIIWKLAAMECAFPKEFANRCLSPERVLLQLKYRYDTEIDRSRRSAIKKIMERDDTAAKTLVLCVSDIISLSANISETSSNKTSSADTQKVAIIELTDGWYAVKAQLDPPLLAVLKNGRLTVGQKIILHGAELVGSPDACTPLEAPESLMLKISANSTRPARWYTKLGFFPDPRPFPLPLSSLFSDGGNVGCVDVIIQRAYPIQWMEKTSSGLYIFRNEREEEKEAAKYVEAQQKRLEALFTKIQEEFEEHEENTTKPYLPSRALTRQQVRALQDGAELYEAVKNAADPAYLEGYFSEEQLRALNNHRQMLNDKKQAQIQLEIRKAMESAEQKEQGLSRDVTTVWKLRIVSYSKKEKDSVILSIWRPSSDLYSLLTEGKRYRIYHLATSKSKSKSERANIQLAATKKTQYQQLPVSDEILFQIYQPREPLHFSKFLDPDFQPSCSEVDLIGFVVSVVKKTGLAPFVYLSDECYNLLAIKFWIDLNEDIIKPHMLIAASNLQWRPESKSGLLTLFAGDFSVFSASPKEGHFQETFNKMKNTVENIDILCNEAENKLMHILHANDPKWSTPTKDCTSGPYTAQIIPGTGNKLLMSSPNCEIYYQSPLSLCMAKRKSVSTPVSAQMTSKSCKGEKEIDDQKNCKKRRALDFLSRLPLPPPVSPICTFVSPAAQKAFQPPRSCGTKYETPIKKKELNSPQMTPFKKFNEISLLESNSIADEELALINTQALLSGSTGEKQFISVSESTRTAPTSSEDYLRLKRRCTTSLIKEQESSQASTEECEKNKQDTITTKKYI

Consider one molecule from publication PMC5355139.

No constants are given. Whether binding was seen depends on the method and setting. Binding seen in cells or lysates may run through a third protein.

B1: EMSY (endogenous) (protein, UniProt Q7Z589 1-1322)
chain: MPVVWPTLLDLSRDECKRILRKLELEAYAGVISALRAQGDLTKEKKDLLGELSKVLSISTERHRAEVRRAVNDERLTTIAHNMSGPNSSSEWSIEGRRLVPLMPRLVPQTAFTVTANAVANAAIQHNASLPVPAETGSKEVVCYSYTSTTSTPTSTPVPSGSIATVKSPRPASPASNVVVLPSGSTVYVKSVSCSDEDEKPRKRRRTNSSSSSPVVLKEVPKAVVPVSKTITVPVSGSPKMSNIMQSIANSLPPHMSPVKITFTKPSTQTTNTTTQKVIIVTTSPSSTFVPNILSKSHNYAAVTKLVPTSVIASTTQKPPVVITASQSSLVSNSSSGSSSSTPSPIPNTVAVTAVVSSTPSVVMSTVAQGVSTSAIKMASTRLPSPKSLVSAPTQILAQFPKQHQQSPKQQLYQVQQQTQQQVAQPSPVSHQQQPQQSPLPPGIKPTIQIKQESGVKIITQQVQPSKILPKPVTATLPTSSNSPIMVVSSNGAIMTTKLVTTPTGTQATYTRPTVSPSIGRMAATPGAATYVKTTSGSIITVVPKSLATLGGKIISSNIVSGTTTKITTIPMTSKPNVIVVQKTTGKGTTIQGLPGKNVVTTLLNAGGEKTIQTVPTGAKPAILTATRPITKMIVTQPKGIGSTVQPAAKIIPTKIVYGQQGKTQVLIKPKPVTFQATVVSEQTRQLVTETLQQASRVAEAGNSSIQEGKEEPQNYTDSSSSSTESSQSSQDSQPVVHVIASRRQDWSEHEIAMETSPTIIYQDVSSESQSATSTIKALLELQQTTVKEKLESKPRQPTIDLSQMAVPIQMTQEKRHSPESPSIAVVESELVAEYITTERTDEGTEVAFPLLVSHRSQPQQPSQPQRTLLQHVAQSQTATQTSVVVKSIPASSPGAITHIMQQALSSHTAFTKHSEELGTEEGEVEEMDTLDPQTGLFYRSALTQSQSAKQQKLSQPPLEQTQLQVKTLQCFQTKQKQTIHLQADQLQHKLPQMPQLSIRHQKLTPLQQEQAQPKPDVQHTQHPMVAKDRQLPTLMAQPPQTVVQVLAVKTTQQLPKLQQAPNQPKIYVQPQTPQSQMSLPASSEKQTASQVEQPIITQGSSVTKITFEGRQPPTVTKITGGSSVPKLTSPVTSISPIQASEKTAVSDILKMSLMEAQIDTNVEHMIVDPPKKALATSMLTGEAGSLPSTHMVVAGMANSTPQQQKCRESCSSPSTVGSSLTTRKIDPPAVPATGQFMRIQNVGQKKAEESPAEIIIQAIPQYAIPCHSSSNVVVEPSGLLELNNFTSQQLDDEETAMEQDIDSSTEDGTEPSPSQSSAERS
Turning to B1, the binding entry is reported as “no binding”.
